Results are given in words; binding and its absence hold for the method and conditions named. In cells and extracts the contact can be indirect. Here binding means that the protein was enriched with, or labelled near, the bait; the list need not be complete.

The chains behind the UniProt entries cited, without tags or fusion partners. Residues count along the entry.
UniProt Q9R0G6, residues 20-755: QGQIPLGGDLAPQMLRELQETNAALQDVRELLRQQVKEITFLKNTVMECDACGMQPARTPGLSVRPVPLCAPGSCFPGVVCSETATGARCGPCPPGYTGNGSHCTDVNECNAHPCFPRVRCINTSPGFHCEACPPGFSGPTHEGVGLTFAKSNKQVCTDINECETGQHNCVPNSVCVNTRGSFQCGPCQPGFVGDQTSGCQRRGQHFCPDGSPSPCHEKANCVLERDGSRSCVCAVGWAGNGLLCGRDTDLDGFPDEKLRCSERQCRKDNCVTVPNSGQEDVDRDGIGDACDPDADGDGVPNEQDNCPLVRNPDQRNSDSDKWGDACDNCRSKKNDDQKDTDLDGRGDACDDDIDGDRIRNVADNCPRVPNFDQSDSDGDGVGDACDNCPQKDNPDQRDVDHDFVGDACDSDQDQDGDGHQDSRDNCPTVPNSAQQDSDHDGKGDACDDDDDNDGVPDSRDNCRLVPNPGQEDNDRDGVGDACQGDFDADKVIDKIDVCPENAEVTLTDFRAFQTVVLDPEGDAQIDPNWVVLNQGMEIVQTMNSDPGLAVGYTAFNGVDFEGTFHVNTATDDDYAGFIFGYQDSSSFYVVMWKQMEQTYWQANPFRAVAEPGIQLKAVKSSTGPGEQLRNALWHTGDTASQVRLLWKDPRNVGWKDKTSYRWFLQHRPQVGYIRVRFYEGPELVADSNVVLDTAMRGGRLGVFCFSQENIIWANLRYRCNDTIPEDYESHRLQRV
UniProt Q5XIH7: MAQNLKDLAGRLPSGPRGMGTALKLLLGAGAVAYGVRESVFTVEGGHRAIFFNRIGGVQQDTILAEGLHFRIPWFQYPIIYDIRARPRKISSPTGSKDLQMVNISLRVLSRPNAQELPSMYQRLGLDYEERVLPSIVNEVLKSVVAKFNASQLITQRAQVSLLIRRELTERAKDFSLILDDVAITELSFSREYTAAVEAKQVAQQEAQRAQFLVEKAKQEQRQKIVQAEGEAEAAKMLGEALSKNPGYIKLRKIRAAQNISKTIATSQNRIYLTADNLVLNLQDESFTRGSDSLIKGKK

Results on one substance are retold here after PMC5986769.

The target of the assay is Cartilage oligomeric matrix protein (COMP), full-length mouse, expressed from adenovirus (Ad-COMP) (mouse) (UniProt Q9R0G6). The assay is described as follows: affinity purification with mass spectrometry; mitochondria of COMP adenovirus-infected VSMCs; immunoprecipitation with COMP antibody against control IgG; seven Coomassie-stained bands excised, LC-MS/MS.

On to “Prohibitin 2, endogenous in VSMCs (from UniProt Q5XIH7 1-299)”, for which the binding entry is listed as “binds”.
